Laboratory results from US8295923B2 (priority 2008, dated 2012).
Where a name gives a salt, the structure may show the parent alone. Read-outs that look alike come from different tables or passages of the source.

Assays:
[1] = IV bolus, hairless rats, n = 3
hairless rat skin = conditions: patch 24 hours, calculated from IV clearance
in vivo = conditions: hairless, rat, iv

Question: Which “Elimination rate const. (λz)” value [1] does the source give for `COc1cc2c(cc1OC)C(=O)C(CC1CCN(Cc3ccccc3)CC1)C2` (stereo not drawn) [Donepezil HCl, donepezil HCl] here?
Answer: 0.19 h⁻¹

Question: What about the “Dose delivered ± SD” value (hairless rat skin; group 2, passive (0 mA)) of the same compound?
Answer: 0 mg/day

Question: What about the “Dose delivered ± SD” value (hairless rat skin; group 3, 0.13 mA) of the same compound?
Answer: 2.55 ± 0.75 mg/day

Question: What about the “Dose delivered ± SD” value (hairless rat skin; group 4, 0.26 mA) of the same compound?
Answer: 5.83 ± 0.37 mg/day

Question: And the “Dose delivered ± SD” value (hairless rat skin; group 5, 0.39 mA)?
Answer: 8.75 ± 2.83 mg/day

Question: And the clearance (in vivo)?
Answer: 38.1 mL/min/kg
